PubChem BioAssay AID652259 | Drosophila RNAi Screening Center | 2013
The deposit covers about 22,000 reagents; this is a random part of those that have a named target and a result. Over the whole deposit, 233 (1.1%) got an active call. 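Light values are raw, unnormalised plate reads; the ratio scores behind the reporter calls were not deposited.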 The record does not give: the amount of reagent, the time to read-out, the dose of the treatment.

Assay: 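Genome-wide hunt for genes that control Wingless pathway activity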 (primary screen)
System: Drosophila clone 8 imaginal disc epithelial cells
Reagent: long dsRNA against Drosophila genes
Conditions: pathway stimulated by co-transfected Wingless expression plasmid
Read-out: 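Dual luciferase reads per well after Wingless plasmid stimulation: reporter firefly light and Renilla control light; activity is firefly divided by Renilla, a ratio not deposited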
Reading the numbers: firefly reporter light: higher = more Wg reporter light, before normalisation; Renilla control light: higher = more transfected or surviving cells
Hit rule: 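Strong candidates differ from their plate mean by at least two out of four per-plate statistical tests; weak candidates meet just one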
Meaning of the calls: active = candidate regulator (raises or lowers reporter); inactive = not a candidate

no.	target gene	amplicon	firefly reporter light, replicate 1	firefly reporter light, replicate 2	Renilla control light, replicate 1	Renilla control light, replicate 2	Call
1	Ugt50B3 (GeneID 246614)	DRSC04778	20379		12194		inactive
2	Ugt50B3 (GeneID 246614)	DRSC04779	22921		13592		inactive
3	Ugt50B3 (GeneID 246614)	DRSC21419	2.36e5	2.36e5	1.46e5	1.23e5	inactive
4	Ankle2 (GeneID 32732)	DRSC20105	3210	12496	1194	3896	inactive
5	Ankle2 (GeneID 32732)	DRSC20106	9776		7192		inactive
6	Snoo (GeneID 5740414)	DRSC01008	19041		11991		inactive
7	Snoo (GeneID 5740414)	DRSC03004	9474		3427		inactive
8	Snoo (GeneID 5740414)	DRSC03035	2152	7057	679	3501	inactive
9	CG13438 (GeneID 37348)	DRSC06398	5590		2144		inactive
10	CG43131 (GeneID 12798230)	DRSC12046	1571		1001		inactive
11	CG14676 (GeneID 40729)	DRSC12262	12758		2368		inactive
12	CG9641 (GeneID 33502)	DRSC00721	15779		5320		inactive
13	CG5439 (GeneID 34710)	DRSC02861	6310		2310		inactive
14	VGAT (GeneID 36574)	DRSC07160	7675		2944		inactive
15	CG17294 (GeneID 34155)	DRSC02596	9468		5336		inactive

Single entries from the entries so far:
Under “Renilla control light, replicate 1”, CG43131 (GeneID 12798230) [DRSC12046] has 1001
Value of Snoo (GeneID 5740414) [DRSC03035] in “Call”: inactive
Value of Ankle2 (GeneID 32732) [DRSC20105] in “Renilla control light, replicate 2”: 3896

More reagents follow:
no.	target gene	amplicon	firefly reporter light, replicate 1	firefly reporter light, replicate 2	Renilla control light, replicate 1	Renilla control light, replicate 2	Call
16	Adck1 (GeneID 37938)	DRSC04394	11189		2571		inactive
17	thr (GeneID 37042)	DRSC07706	8711		1177		inactive
18	CG6052 (GeneID 39971)	DRSC10574	3788		1876		inactive
19	Gel (GeneID 46008)	DRSC12350	5729		2656		inactive
20	ais (GeneID 39979)	DRSC10523	3572		1750		inactive
21	Neurl4 (GeneID 39558)	DRSC10638	3936		1612		inactive
22	U4-U6-60K (GeneID 39955)	DRSC10624	6854		1849		inactive
23	CG8031 (GeneID 41601)	DRSC16364	9148		3180		inactive
24	CG10853 (GeneID 38465)	DRSC08164	7940		3109		inactive
25	CG34278 (GeneID 5740656)	DRSC13208	3424		1456		inactive
26	CG4972 (GeneID 34388)	DRSC02798	2752	6522	663	2544	inactive
27	Gyc32E (GeneID 34553)	DRSC01154	16108		7741		inactive
28	Rilpl (GeneID 31090)	DRSC18494	4486	7047	955	3424	inactive
29	Rbfox1 (GeneID 39198)	DRSC09034	5482		2325		inactive
30	Rbfox1 (GeneID 39198)	DRSC10157	7493		4608		inactive
31	Rbfox1 (GeneID 39198)	DRSC10320	10442		3092		inactive
32	Rbfox1 (GeneID 39198)	DRSC21378	8.26e5	8.09e5	4.11e5	3.72e5	inactive
